From the supplement of paper PMC8256030
Some of the results follow. Repeats in this data set agree poorly, so a single value says little.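 HEK293T cells were given each compound shortly before transfection with a reporter in which red mCherry is followed by the SARS-CoV-2 frameshift element and then GFP in the −1 frame, so GFP appears only after frameshifting.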

test system: HEK293T; assay: percent viability (nuclei count) relative to control; higher = more viable cells; settings: 10 µM; 24 h

Row | Compound | percent viability [%]
1 | CN1C(=O)CC(c2ccccc2)C1=O (stereo not drawn) [phensuximide] | 299
2 | COc1ccc(C2CNC(=O)NC2)cc1O[C@H]1C[C@@H]2CC[C@H]1C2 [atizoram] | 135
3 | O=c1ccn([C@@H]2O[C@H](COP(=O)(O)OP(=O)(O)OP(=O)(O)OP(=O)(O)OC[C@H]3O[C@@H](n4ccc(=O)[nH]c4=O)[C@H](O)[C@@H]3O)[C@@H](O)[C@H]2O)c(=O)[nH]1 [diquafosol] | 240
4 | CC(C)(C)NC[C@H](O)COc1ccccc1C1CCCC1 [penbutolol] | 368
5 | C[C@@H]1NC(=O)[C@@H](N)CNC(=O)[C@H](C2CCNC(=N)N2)NC(=O)/C(=C/NC(N)=O)NC(=O)[C@H](CNC(=O)CC(N)CCCN)NC1=O.N=C1NCC[C@H]([C@@H]2NC(=O)/C(=C/NC(N)=O)NC(=O)[C@H](CNC(=O)C[C@@H](N)CCCN)NC(=O)[C@H](CO)NC(=O)[C@@H](N)CNC2=O)N1 [Capreomycin] | 35.5
6 | NC[C@H]1CC[C@H](C(=O)O)CC1 [tranexamic acid] | 105
7 | CC(C)NC[C@H](O)COc1ccc(O)cc1 [prenalterol] | 204
8 | CC(=O)N[C@@H](CCC(N)=O)C(=O)O | 208
9 | C#Cc1cccc(Nc2ncnc3cc(OCCOC)c(OCCOC)cc23)c1 [erlotinib] | 142
10 | C=C1/C(=C\C=C2/CCC[C@]3(C)[C@@H]([C@H](C)OCCC(C)(C)O)CC[C@@H]23)C[C@@H](O)C[C@@H]1O [maxacalcitol] | 121
11 | CCCC(=O)c1ccc2c(c1)N(CCCN1CCN(C)CC1)c1ccccc1S2 [butaperazine] | 376
12 | CC(O)(P(=O)(O)O)P(=O)(O)O [etidronic acid] | 257
13 | NC(=O)NS(=O)(=O)c1ccc(N)cc1 [sulfacarbamide] | 272

Given as comma-separated lines: entries from further up.
Row,Compound,percent viability [%]
8,CC(=O)N[C@@H](CCC(N)=O)C(=O)O,208
9,C#Cc1cccc(Nc2ncnc3cc(OCCOC)c(OCCOC)cc23)c1 [erlotinib],142
